Among the data in PMC6114777 are binding values, retold here.

In the assay the target is T1, Flag-IRF3 (UniProt Q14653).
T1 sequence: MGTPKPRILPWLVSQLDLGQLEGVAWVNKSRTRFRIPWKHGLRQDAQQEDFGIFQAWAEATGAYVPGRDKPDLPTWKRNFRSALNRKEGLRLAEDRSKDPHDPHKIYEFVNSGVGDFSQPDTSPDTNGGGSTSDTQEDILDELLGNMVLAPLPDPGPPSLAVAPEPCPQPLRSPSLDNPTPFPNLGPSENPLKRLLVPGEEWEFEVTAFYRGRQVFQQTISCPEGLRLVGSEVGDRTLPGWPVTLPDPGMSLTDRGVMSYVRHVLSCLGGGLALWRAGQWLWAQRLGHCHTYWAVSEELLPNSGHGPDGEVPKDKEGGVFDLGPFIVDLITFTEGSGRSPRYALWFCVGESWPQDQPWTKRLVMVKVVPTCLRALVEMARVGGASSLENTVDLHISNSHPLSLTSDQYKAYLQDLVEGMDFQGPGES
Put plainly: co-IP; HEK293T co-transfected with Flag-IRF3, His-UBE2J1 and HA-ubiquitin (or HA-K48 or HA-K63 ubiquitin); MG132 20 uM for 6 h before harvest; lysate on anti-Flag M2 Affinity Gel overnight at 4 °C; four washes with lysis buffer containing 500 mM NaCl; UBE2J1 detected with anti-His.

These are yes or no findings as the source states them, for the method shown. Binding seen in cells or lysates may run through a third protein. Some binding calls cover weakened binding; strength is not graded here. Sequences can lack the tags named with a protein.

B1: His-tagged UBE2J1 (enzyme, UniProt Q9Y385 1-318)
chain: METRYNLKSPAVKRLMKEAAELKDPTDHYHAQPLEDNLFEWHFTVRGPPDSDFDGGVYHGRIVLPPEYPMKPPSIILLTANGRFEVGKKICLSISGHHPETWQPSWSIRTALLAIIGFMPTKGEGAIGSLDYTPEERRALAKKSQDFCCEGCGSAMKDVLLPLKSGSDSSQADQEAKELARQISFKAEVNSSGKTISESDLNHSFSLTDLQDDIPTTFQGATASTSYGLQNSSAASFHQPTQPVAKNTSMSPRQRRAQQQSQRRLSTSPDVIQGHQPRDNHTDHGGSAVLIVILTLALAALIFRRIYLANEYIFDFEL
For the molecule B1, the binding entry is “binds”.
